Laboratory results: PubChem BioAssay AID686943 (Drosophila RNAi Screening Center, 2013)
The screen tested about 23,000 reagents; shown is a random part of those that have a named target and a result. 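Extra replicates exist only for a retested subset of genes; insulin dose and duration not given; both raised and lowered dpERK matter.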 The numbers tell different reagents against one gene apart. A plus sign joins genes that one reagent is predicted to hit. Not all columns of the deposit are shown. Reagent sequences are not shown. Not stated in the record: the amount of reagent, the time to read-out.

- Test: 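Search across the genome for regulators of signalling from receptor tyrosine kinase to ERK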 (primary screen)
- Cells: Drosophila S2R+ haemocyte-like cells expressing YFP-tagged ERK (Rolled)
- Knock-down reagent: long dsRNA against Drosophila genes
- Challenge: insulin stimulation versus unstimulated cells; dose and duration not given
- Measured: 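Per-plate z-scores of phospho-ERK immunostaining normalised to YFP-tagged ERK, measured with and without insulin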
- Scale: replicate 1, z-score of dpERK with insulin and replicate 2, z-score of dpERK with insulin: higher = more active ERK per ERK-YFP after insulin

For Ir94f (Ionotropic receptor 94f), what does the deposit list?
replicate 1, z-score of dpERK with insulin: -0.01; replicate 2, z-score of dpERK with insulin: -0.17

With CG9098 #1, what does the deposit list?
replicate 1, z-score of dpERK with insulin: 0.72; replicate 2, z-score of dpERK with insulin: -0.06

With CG9098 #2, what does the deposit list?
replicate 1, z-score of dpERK with insulin: 0.26; replicate 2, z-score of dpERK with insulin: 0.68

For Polr3C (RNA polymerase III subunit C), what was measured?
replicate 1, z-score of dpERK with insulin: 1.66; replicate 2, z-score of dpERK with insulin: 0.03

With CG15549, how do the results read?
replicate 1, z-score of dpERK with insulin: 0.06; replicate 2, z-score of dpERK with insulin: 0.13

What did the screen give for NAAT1 (Nutrient Amino Acid Transporter 1)?
replicate 1, z-score of dpERK with insulin: 0.98; replicate 2, z-score of dpERK with insulin: 0.95

What did the screen give for CG15258?
replicate 1, z-score of dpERK with insulin: -1; replicate 2, z-score of dpERK with insulin: -0.48

How did the screen score CG32548 #1?
replicate 1, z-score of dpERK with insulin: 0.72; replicate 2, z-score of dpERK with insulin: 0.33

With CG32548 #2, what was measured?
replicate 1, z-score of dpERK with insulin: 2.06; replicate 2, z-score of dpERK with insulin: 1.12

Which result is listed for disco (disconnected)?
replicate 1, z-score of dpERK with insulin: -0.37; replicate 2, z-score of dpERK with insulin: 0.45

Which result is listed for Femcoat?
replicate 1, z-score of dpERK with insulin: 0.27; replicate 2, z-score of dpERK with insulin: 0.63

With fbl (fumble), what was measured?
replicate 1, z-score of dpERK with insulin: -0.39; replicate 2, z-score of dpERK with insulin: 1.04

With ppk9 (pickpocket 9) #1, what was measured?
replicate 1, z-score of dpERK with insulin: -0.16; replicate 2, z-score of dpERK with insulin: 0.35

What is on record for ppk9 (pickpocket 9) #2?
replicate 1, z-score of dpERK with insulin: -1.85; replicate 2, z-score of dpERK with insulin: -1.62

For CG2955, what does the deposit list?
replicate 1, z-score of dpERK with insulin: -0.57; replicate 2, z-score of dpERK with insulin: -0.16

Which result is listed for Nmt (N-myristoyl transferase)?
replicate 1, z-score of dpERK with insulin: 1.46; replicate 2, z-score of dpERK with insulin: 1.03

What did the screen give for EMC1 (ER membrane protein complex subunit 1)?
replicate 1, z-score of dpERK with insulin: 0.42; replicate 2, z-score of dpERK with insulin: 0.31

For CG9114, what does the deposit list?
replicate 1, z-score of dpERK with insulin: 1.31; replicate 2, z-score of dpERK with insulin: 1.4

For hng3 (hinge3), how do the results read?
replicate 1, z-score of dpERK with insulin: -0.27; replicate 2, z-score of dpERK with insulin: 0.48

What did the screen give for CG6908?
replicate 1, z-score of dpERK with insulin: 0.03; replicate 2, z-score of dpERK with insulin: -0.41

For CG34200, how do the results read?
replicate 1, z-score of dpERK with insulin: 1.27; replicate 2, z-score of dpERK with insulin: 0.64

What is on record for CG8006?
replicate 1, z-score of dpERK with insulin: -0.43; replicate 2, z-score of dpERK with insulin: -2.38

With RpL31 (Ribosomal protein L31), what does the deposit list?
replicate 1, z-score of dpERK with insulin: -1.87; replicate 2, z-score of dpERK with insulin: -1.58

How did the screen score CG15425?
replicate 1, z-score of dpERK with insulin: 0.18; replicate 2, z-score of dpERK with insulin: 0.14

For CG17234, how do the results read?
replicate 1, z-score of dpERK with insulin: -0.07; replicate 2, z-score of dpERK with insulin: 0.56

Which result is listed for CG14154?
replicate 1, z-score of dpERK with insulin: -0.6; replicate 2, z-score of dpERK with insulin: -0.15

How did the screen score Pus10 (Pseudouridine synthase 10)?
replicate 1, z-score of dpERK with insulin: 0.6; replicate 2, z-score of dpERK with insulin: -0.25

With CG14082, how do the results read?
replicate 1, z-score of dpERK with insulin: 1.01; replicate 2, z-score of dpERK with insulin: 0.24

What did the screen give for CG17375?
replicate 1, z-score of dpERK with insulin: 0.23; replicate 2, z-score of dpERK with insulin: 0.23

For Rgk3 (Rad, Gem/Kir family member 3) #1, what does the deposit list?
replicate 1, z-score of dpERK with insulin: 0.95; replicate 2, z-score of dpERK with insulin: 0.75

For Rgk3 (Rad, Gem/Kir family member 3) #2, what was measured?
replicate 1, z-score of dpERK with insulin: 0.82; replicate 2, z-score of dpERK with insulin: 0.66

How did the screen score Rgk3 (Rad, Gem/Kir family member 3) #3?
replicate 1, z-score of dpERK with insulin: -0.55; replicate 2, z-score of dpERK with insulin: 0.28

What did the screen give for Rgk3 (Rad, Gem/Kir family member 3) #4?
replicate 1, z-score of dpERK with insulin: -0.29; replicate 2, z-score of dpERK with insulin: -0.75

With BaraA1 + BaraA2, what was measured?
replicate 1, z-score of dpERK with insulin: -0.17; replicate 2, z-score of dpERK with insulin: -0.4

What did the screen give for CG9592?
replicate 1, z-score of dpERK with insulin: -0.86; replicate 2, z-score of dpERK with insulin: -0.19

Which result is listed for CG9799?
replicate 1, z-score of dpERK with insulin: 0.78; replicate 2, z-score of dpERK with insulin: 0.13

What is on record for CG5335?
replicate 1, z-score of dpERK with insulin: 0.36; replicate 2, z-score of dpERK with insulin: 1.01

What is on record for CG13801?
replicate 1, z-score of dpERK with insulin: 0.44; replicate 2, z-score of dpERK with insulin: 0.63

For CG5726, what does the deposit list?
replicate 1, z-score of dpERK with insulin: -0.86; replicate 2, z-score of dpERK with insulin: 0.48

For CG6712 #1, what was measured?
replicate 1, z-score of dpERK with insulin: 0.19; replicate 2, z-score of dpERK with insulin: 0.19

What did the screen give for CG6712 #2?
replicate 1, z-score of dpERK with insulin: -2.12; replicate 2, z-score of dpERK with insulin: 0.99

Single entries from the entries so far:
Entry for CG13801 in “replicate 2, z-score of dpERK with insulin”: 0.63
Value for CG17234 in “replicate 1, z-score of dpERK with insulin”: -0.07
